Some of the results follow.

Protein sequences, listed by entry. Tags and fused reporters are not part of them. Lines headed by an entry give the natural chain unless they say otherwise; changes in a name come on top.
UniProt Q8IW92: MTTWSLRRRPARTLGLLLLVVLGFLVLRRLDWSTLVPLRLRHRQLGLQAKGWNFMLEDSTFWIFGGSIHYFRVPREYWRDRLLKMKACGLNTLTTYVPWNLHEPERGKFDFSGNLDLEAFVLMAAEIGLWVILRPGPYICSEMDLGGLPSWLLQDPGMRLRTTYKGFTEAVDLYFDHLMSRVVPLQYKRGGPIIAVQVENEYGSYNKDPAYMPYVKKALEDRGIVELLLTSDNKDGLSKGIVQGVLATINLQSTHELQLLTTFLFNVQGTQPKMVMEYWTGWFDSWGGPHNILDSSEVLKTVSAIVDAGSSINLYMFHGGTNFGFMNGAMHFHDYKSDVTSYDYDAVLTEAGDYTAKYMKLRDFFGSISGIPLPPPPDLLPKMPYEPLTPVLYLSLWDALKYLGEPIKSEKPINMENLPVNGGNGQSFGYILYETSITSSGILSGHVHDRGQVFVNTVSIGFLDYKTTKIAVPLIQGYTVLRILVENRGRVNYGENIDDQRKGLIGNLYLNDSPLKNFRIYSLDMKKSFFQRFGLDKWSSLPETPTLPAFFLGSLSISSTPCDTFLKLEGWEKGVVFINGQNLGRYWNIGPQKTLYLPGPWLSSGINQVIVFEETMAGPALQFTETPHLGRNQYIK
UniProt Q9NQX3: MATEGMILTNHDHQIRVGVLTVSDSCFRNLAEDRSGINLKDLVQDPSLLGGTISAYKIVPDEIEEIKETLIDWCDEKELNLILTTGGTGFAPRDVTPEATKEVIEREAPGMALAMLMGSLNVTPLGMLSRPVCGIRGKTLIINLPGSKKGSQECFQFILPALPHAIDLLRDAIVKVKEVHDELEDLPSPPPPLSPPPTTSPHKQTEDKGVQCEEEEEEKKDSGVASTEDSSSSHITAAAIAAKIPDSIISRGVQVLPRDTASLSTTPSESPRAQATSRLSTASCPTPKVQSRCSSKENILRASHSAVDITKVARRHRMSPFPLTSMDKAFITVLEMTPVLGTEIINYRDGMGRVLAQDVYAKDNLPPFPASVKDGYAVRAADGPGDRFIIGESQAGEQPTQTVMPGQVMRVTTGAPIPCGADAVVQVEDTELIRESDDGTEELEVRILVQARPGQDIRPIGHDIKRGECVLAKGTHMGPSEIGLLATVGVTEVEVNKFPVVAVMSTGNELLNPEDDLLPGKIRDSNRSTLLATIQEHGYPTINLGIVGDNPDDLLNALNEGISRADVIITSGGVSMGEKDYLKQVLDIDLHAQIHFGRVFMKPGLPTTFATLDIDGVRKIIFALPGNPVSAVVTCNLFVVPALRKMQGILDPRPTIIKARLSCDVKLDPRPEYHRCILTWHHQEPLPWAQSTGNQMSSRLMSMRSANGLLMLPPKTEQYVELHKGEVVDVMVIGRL
UniProt Q8TDQ7: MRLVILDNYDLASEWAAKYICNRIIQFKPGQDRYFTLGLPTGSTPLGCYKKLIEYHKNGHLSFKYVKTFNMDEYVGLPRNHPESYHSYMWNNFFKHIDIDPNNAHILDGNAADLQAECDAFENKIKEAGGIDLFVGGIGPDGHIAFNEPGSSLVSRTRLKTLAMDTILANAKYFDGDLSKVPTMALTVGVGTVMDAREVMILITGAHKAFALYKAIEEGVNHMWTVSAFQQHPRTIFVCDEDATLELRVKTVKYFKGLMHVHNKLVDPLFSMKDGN
UniProt Q9HC44: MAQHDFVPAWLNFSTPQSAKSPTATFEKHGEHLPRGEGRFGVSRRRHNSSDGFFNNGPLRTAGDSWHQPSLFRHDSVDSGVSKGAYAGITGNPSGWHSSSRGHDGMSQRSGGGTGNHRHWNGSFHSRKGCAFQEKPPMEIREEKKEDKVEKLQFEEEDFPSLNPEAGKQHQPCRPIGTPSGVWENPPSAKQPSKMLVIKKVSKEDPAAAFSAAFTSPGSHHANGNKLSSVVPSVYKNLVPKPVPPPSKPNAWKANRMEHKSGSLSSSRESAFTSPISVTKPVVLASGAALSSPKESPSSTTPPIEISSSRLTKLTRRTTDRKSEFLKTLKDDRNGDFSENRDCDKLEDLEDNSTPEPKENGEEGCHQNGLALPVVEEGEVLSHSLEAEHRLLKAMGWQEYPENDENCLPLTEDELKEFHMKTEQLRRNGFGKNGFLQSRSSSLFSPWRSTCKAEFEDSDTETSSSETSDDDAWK
UniProt Q4V328: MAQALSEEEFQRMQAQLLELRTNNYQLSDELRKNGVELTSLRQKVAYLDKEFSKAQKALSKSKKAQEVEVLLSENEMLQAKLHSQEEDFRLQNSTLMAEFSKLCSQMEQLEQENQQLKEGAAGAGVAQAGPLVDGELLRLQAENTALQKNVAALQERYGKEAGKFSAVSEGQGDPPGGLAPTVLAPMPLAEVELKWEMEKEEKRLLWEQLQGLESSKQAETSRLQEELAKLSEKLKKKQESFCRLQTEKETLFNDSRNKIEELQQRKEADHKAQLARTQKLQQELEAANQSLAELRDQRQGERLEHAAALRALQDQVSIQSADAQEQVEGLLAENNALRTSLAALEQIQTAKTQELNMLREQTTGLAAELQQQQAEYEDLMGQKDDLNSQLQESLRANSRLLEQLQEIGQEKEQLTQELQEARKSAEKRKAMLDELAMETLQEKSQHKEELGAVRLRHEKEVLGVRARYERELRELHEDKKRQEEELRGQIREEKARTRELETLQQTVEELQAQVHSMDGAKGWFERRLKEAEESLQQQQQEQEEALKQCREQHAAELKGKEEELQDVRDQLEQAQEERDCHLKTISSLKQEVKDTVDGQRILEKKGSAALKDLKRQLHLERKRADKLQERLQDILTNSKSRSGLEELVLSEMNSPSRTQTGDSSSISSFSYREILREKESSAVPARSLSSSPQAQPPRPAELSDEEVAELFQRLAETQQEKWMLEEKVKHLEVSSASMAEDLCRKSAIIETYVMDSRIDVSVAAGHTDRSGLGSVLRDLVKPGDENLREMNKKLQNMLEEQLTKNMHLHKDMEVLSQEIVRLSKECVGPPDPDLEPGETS
UniProt Q9HAV7: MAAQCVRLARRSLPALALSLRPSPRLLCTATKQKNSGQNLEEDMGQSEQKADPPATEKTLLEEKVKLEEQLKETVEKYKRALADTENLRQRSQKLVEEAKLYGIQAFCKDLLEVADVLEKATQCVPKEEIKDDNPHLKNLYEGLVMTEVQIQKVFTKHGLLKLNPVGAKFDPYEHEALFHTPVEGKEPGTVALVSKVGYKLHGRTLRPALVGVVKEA
UniProt Q5VW38: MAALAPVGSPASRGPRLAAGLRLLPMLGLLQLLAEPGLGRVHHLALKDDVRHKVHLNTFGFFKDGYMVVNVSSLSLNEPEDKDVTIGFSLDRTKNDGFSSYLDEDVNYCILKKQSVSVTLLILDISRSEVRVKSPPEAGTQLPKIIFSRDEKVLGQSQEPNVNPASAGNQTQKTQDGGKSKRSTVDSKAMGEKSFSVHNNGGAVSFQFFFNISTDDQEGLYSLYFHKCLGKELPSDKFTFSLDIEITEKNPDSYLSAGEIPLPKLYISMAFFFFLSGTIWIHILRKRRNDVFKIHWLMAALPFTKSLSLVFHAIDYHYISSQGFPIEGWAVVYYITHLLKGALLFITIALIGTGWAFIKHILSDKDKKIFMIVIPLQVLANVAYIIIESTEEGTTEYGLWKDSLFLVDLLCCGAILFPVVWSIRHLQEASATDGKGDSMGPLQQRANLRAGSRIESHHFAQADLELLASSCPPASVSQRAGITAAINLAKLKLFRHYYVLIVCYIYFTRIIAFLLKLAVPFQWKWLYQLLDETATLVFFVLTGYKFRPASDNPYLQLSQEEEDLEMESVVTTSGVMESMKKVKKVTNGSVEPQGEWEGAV
UniProt Q04760: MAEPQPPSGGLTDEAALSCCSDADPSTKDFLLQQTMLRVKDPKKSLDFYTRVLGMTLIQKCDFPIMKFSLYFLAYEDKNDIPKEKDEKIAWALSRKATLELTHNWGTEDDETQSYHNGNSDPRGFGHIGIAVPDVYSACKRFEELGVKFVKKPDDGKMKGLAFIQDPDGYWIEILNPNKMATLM
UniProt O95249: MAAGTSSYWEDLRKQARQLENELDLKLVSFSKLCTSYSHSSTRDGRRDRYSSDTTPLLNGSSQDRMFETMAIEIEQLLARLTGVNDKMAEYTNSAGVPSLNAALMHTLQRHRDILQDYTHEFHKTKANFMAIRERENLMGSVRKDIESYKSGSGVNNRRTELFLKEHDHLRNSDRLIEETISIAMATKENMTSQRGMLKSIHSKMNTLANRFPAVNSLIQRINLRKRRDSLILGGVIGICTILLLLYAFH
UniProt Q7Z5G4, whole entry, looked up: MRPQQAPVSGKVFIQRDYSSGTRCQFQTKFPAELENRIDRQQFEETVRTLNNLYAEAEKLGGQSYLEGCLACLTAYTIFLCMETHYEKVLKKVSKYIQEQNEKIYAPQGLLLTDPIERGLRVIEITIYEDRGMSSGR
UniProt Q9HC38: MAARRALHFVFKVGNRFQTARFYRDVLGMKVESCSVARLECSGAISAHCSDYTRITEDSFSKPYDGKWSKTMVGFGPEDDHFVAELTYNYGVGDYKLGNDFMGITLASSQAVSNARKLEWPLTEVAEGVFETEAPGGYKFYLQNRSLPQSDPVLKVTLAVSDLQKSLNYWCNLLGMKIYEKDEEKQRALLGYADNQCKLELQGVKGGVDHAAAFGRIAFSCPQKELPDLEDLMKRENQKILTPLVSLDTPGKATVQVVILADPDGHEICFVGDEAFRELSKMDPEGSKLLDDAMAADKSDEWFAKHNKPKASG
UniProt Q9BRR8: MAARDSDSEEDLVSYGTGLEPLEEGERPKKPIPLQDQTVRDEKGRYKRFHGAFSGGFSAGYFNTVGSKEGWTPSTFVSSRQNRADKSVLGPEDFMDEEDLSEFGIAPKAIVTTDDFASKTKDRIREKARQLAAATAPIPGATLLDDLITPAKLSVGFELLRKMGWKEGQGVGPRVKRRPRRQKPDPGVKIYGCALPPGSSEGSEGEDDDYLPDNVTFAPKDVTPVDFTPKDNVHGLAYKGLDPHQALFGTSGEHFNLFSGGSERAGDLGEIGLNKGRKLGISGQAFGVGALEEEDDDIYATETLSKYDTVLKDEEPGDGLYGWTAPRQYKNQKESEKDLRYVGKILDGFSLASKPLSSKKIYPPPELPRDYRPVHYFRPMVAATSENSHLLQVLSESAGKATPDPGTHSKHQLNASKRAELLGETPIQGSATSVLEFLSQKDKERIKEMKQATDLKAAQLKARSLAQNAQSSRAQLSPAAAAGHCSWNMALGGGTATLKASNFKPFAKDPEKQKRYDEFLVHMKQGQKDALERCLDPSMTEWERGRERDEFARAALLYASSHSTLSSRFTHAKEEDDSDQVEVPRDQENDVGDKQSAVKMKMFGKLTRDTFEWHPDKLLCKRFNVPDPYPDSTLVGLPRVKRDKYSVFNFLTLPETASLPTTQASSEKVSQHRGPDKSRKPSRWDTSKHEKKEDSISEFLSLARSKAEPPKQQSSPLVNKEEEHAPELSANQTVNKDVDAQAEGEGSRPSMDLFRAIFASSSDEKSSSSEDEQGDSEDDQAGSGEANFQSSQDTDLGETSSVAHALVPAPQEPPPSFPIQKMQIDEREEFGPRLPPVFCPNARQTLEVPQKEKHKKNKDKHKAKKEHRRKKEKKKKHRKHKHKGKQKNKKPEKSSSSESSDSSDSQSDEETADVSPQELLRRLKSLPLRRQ
UniProt Q13098: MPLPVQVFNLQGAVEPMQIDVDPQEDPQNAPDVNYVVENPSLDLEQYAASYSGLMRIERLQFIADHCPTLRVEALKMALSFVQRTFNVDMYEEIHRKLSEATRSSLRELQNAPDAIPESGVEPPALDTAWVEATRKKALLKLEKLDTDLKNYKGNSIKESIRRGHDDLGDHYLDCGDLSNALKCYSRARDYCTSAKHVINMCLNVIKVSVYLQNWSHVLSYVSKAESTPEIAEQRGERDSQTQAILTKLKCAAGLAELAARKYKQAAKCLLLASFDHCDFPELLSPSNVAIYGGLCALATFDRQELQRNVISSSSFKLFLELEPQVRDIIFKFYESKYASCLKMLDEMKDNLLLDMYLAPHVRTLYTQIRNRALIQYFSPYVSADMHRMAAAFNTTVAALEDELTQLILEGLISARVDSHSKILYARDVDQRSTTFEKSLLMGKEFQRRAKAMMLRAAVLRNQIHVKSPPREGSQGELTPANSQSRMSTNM
UniProt Q53EU6: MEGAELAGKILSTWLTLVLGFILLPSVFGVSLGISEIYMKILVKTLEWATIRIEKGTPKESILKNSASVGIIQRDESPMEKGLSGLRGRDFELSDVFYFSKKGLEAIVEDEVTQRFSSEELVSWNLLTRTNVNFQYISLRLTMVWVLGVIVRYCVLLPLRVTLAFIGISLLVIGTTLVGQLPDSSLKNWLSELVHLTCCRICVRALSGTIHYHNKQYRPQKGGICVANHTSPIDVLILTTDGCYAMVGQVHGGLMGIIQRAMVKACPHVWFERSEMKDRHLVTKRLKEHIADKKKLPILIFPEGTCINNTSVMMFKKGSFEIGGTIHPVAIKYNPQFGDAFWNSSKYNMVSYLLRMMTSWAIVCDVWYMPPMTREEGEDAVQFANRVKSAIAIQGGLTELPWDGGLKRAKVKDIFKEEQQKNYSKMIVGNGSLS

Compound in one experiment: CN1CCN(CCOc2cc(OC3CCOCC3)c3c(Nc4c(Cl)ccc5c4OCO5)ncnc3c2)CC1 [saracatinib]
In words: log2 fold change, soluble protein after heating vs DMSO (PISA); higher = thermal stabilisation; K562 cells, 10 uM, 30 min; active = over 0.2 and 3.5 SD of the protein, either way, in both replicates (recomputed). The procedure, abridged:
(§1)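 K562 cells at 2×10^6 cells/mL were treated with 10 μM compound for 30 min. Aliquots were heated for 3 min across 48°C-58°C, pooled, and extracted in PBS with 0.5% NP-40 at 4°C; soluble protein was the supernatant after 21,000xg for 90 min. Soluble protein was quantified by TMTpro 16plex LC-MS/MS with channel sums equalised, and reported as log2 fold change in thermal stability against DMSO controls, with values from duplicates.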
With GNA13 (UniProt Q14344), the log2 fold change was inactive: -0.019.
The same measure, in the same setting: the same measure for GLB1L2 (UniProt Q8IW92): inactive: 0.055.
On to GK (UniProt P32189), for which the log2 fold change was inactive: 0.067.
As for GPHN isoform 2 (UniProt Q9NQX3), the log2 fold change is inactive: 0.072.
Still for that read-out and setting: then GNPNAT1 (UniProt Q96EK6), with inactive: 0.036; and GMPR (UniProt P36959), with inactive: -0.027; and GNMT (UniProt Q14749), with inactive: 0.061.
Consider GMDS (UniProt O60547), for which the log2 fold change is inactive: 0.032.
Turning to GNPDA2 (UniProt Q8TDQ7), the log2 fold change is inactive: 0.095.
Turning to GPBP1L1 (UniProt Q9HC44), the log2 fold change was inactive: 0.013.
For the target GM2A (UniProt P17900), the log2 fold change was inactive: 0.056.
With GMPPA (UniProt Q96IJ6), the log2 fold change is inactive: 0.016.
On to GOLGA5 (UniProt Q8TBA6), for which the log2 fold change is inactive: 0.015.
The same measure, in the same setting: then GRIPAP1 (UniProt Q4V328), with inactive: 0.125; and GRPEL1 (UniProt Q9HAV7), with inactive: -0.018.
GOT2 (UniProt P00505): the log2 fold change was inactive: 0.035.
GNA12 (UniProt Q03113): the log2 fold change was inactive: -0.069.
With GPR107 (UniProt Q5VW38), the log2 fold change is inactive: 0.046.
As for GNPDA1 (UniProt P46926), the log2 fold change is inactive: 0.037.
The same measure, in the same setting: the same measure for GLO1 (UniProt Q04760): inactive: 0.032; for GOSR1 (UniProt O95249): inactive: 0.016.
Consider GOLGA7 (UniProt Q7Z5G4), for which the log2 fold change was inactive: -0.046.
Consider GOSR2 isoform 2 (UniProt O14653), for which the log2 fold change was inactive: -0.145.
Same read-out and setting: then GNB1L (UniProt Q9BYB4), with inactive: 0.01; and GLOD4 isoform 2 (UniProt Q9HC38), with inactive: -0.004; and GPATCH11 (UniProt Q8N954), with inactive: -0.025.
As to GLG1 isoform 2 (UniProt Q92896), the log2 fold change is inactive: 0.002.
For the target GPATCH1 (UniProt Q9BRR8), the log2 fold change is inactive: -0.089.
The same measure, in the same setting: then GINS3 (UniProt Q9BRX5), with inactive: -0.015.
Still for that read-out and setting: the same measure for GNE isoform 2 (UniProt Q9Y223): inactive: 0.037.
Same read-out and setting: the same measure for GPRIN1 (UniProt Q7Z2K8): inactive: 0; for GOT1 (UniProt P17174): inactive: 0.033; for GPBP1 isoform 2 (UniProt Q86WP2): inactive: 0.066.
Regarding GPS1 isoform 7 (UniProt Q13098), the log2 fold change is inactive: 0.031.
With GMNN (UniProt O75496), the log2 fold change was inactive: 0.014.
In the case of GPD2 (UniProt P43304), the log2 fold change was inactive: 0.041.
As for GPN2 (UniProt Q9H9Y4), the log2 fold change is inactive: 0.01.
Regarding GPAT3 (UniProt Q53EU6), the log2 fold change was inactive: 0.003.

Compound in the next experiment: CN1CCN(c2nc(C3=C(c4c[nH]c5ccccc45)C(=O)NC3=O)c3ccccc3n2)CC1 [sotrastaurin]
Described as above. The method in brief: as §1
In the case of GNA13 (UniProt Q14344), the log2 fold change is inactive: 0.015.
Turning to GLB1L2 (UniProt Q8IW92), the log2 fold change is inactive: -0.008.
Still for that read-out and setting: the same measure for GK (UniProt P32189): inactive: 0.049; for GPHN isoform 2 (UniProt Q9NQX3): inactive: 0.06; for GNPNAT1 (UniProt Q96EK6): inactive: 0.052.
For the target GMPR (UniProt P36959), the log2 fold change is inactive: 0.035.
Take GNMT (UniProt Q14749): the log2 fold change was inactive: -0.087.
As for GMDS (UniProt O60547), the log2 fold change is inactive: 0.07.
As for GNPDA2 (UniProt Q8TDQ7), the log2 fold change is inactive: 0.047.
For GPBP1L1 (UniProt Q9HC44), the log2 fold change is inactive: -0.04.
The same measure, in the same setting: the same measure for GM2A (UniProt P17900): inactive: 0.027.
Consider GMPPA (UniProt Q96IJ6), for which the log2 fold change is inactive: -0.004.
With GOLGA5 (UniProt Q8TBA6), the log2 fold change was inactive: 0.048.
On to GRIPAP1 (UniProt Q4V328), for which the log2 fold change is inactive: -0.143.
Take GRPEL1 (UniProt Q9HAV7): the log2 fold change was inactive: 0.031.
The same measure, in the same setting: then GOT2 (UniProt P00505), with inactive: 0.042; and GNA12 (UniProt Q03113), with inactive: 0.137.
Take GPR107 (UniProt Q5VW38): the log2 fold change was inactive: 0.033.
Same read-out and setting: the same measure for GNPDA1 (UniProt P46926): inactive: 0.071; for GLO1 (UniProt Q04760): inactive: -0.003; for GOSR1 (UniProt O95249): inactive: -0.036.
As for GOLGA7 (UniProt Q7Z5G4), the log2 fold change is inactive: -0.006.
As for GOSR2 isoform 2 (UniProt O14653), the log2 fold change is inactive: -0.09.
GNB1L (UniProt Q9BYB4): the log2 fold change was inactive: 0.05.
The same measure, in the same setting: the same measure for GLOD4 isoform 2 (UniProt Q9HC38): inactive: -0.01.
In the case of GPATCH11 (UniProt Q8N954), the log2 fold change was inactive: 0.035.
For the target GLG1 isoform 2 (UniProt Q92896), the log2 fold change is inactive: -0.005.
Same read-out and setting: the same measure for GPATCH1 (UniProt Q9BRR8): inactive: -0.135.
As for GINS3 (UniProt Q9BRX5), the log2 fold change is inactive: 0.003.
As for GNE isoform 2 (UniProt Q9Y223), the log2 fold change was inactive: 0.047.
Turning to GPRIN1 (UniProt Q7Z2K8), the log2 fold change is inactive: 0.003.
As to GOT1 (UniProt P17174), the log2 fold change was inactive: 0.038.
Take GPBP1 isoform 2 (UniProt Q86WP2): the log2 fold change was inactive: -0.011.
GPS1 isoform 7 (UniProt Q13098): the log2 fold change was inactive: 0.004.
Turning to GMNN (UniProt O75496), the log2 fold change was inactive: 0.045.
GPD2 (UniProt P43304): the log2 fold change was inactive: 0.057.
Still for that read-out and setting: then GPN2 (UniProt Q9H9Y4), with inactive: 0.009.
Still for that read-out and setting: the same measure for GPAT3 (UniProt Q53EU6): inactive: 0.071.

These data come from the supplement of paper PMC10849652.
